Data: US20160368879A1, “PHOTOACID GENERATOR, AND RESIN COMPOSITION FOR PHOTOLITHOGRAPHY” (SAN-APRO LTD., priority 2013, published 2016)

Assay: Resist curing properties: lowest exposure quantity of a phenol resin/melamine negative resist film
Details: for Lowest exposure quantity: lowest exposure (365 nm) giving change in film thickness before and after development within 10%; for Resist curing properties: 1 part photoacid generator in phenol resin/CYMEL 300 resist, film about 3 μm, PEB 10 minutes 120° C., 0.5% potassium hydroxide development
Experimental: A resin solution of 75 parts of a phenol resin (“PHENOLITE TD 431” available from DIC Corporation), 25 parts of a melamine curing agent (“CYMEL 300” available from MITSUI CYANAMID Co., Ltd.), 1 part of a synthesized photoacid generator and 200 parts of propylene glycol monomethyl ether acetate (hereinafter, abbreviated as PGMEA) was applied on a glass substrate of 10 cm square under a condition of 10 seconds at 1000 rpm using a spin coater. Then, the applied film was dried under vacuum for 5 minutes at 25° C., after which the film was dried for 3 minutes on an 80° C. hot plate to form a resist film with a film thickness of about 3 μm. The whole face of this resist film was exposed with a prescribed dose of ultraviolet light having a wavelength limited by the L-34 filter (a filter cutting light with a wavelength less than 340 nm, available from Kenko Optical Co., Ltd.) using an ultraviolet irradiation device (HMW-661F-01 available from ORC MANUFACTURING CO., LTD.). In this connection, a wavelength of 365 nm was measured for the integrated exposure quantity. Then, the film was subjected to post exposure baking (PEB) for 10 minutes with a 120° C. fair wind dryer, after which the film was immersed for 30 seconds in a 0.5% potassium hydroxide solution to be subjected to development, washed immediately with water and dried.
The film thickness of this resist film was measured using a shape measuring microscope (super-depth shape measuring microscope VK-8550, available from KEYENCE CORPORATION).
In this context, the resist curing properties were evaluated according to the following criteria on the basis of the lowest exposure quantity with which a change in film thickness of the resist film before and after development of within 10% was attained.
◯: The lowest exposure quantity is 250 mJ/cm^2 or less. Δ: The lowest exposure quantity is greater than 250 mJ/cm^2 and 500 mJ/cm^2 or less. x: The lowest exposure quantity is greater than 500 mJ/cm^2.

| Structure (SMILES) | Lowest exposure quantity [mJ/cm^2] | Resist curing properties |
| --- | --- | --- |
| O=C1c2cccc3cccc(c23)C(=O)N1OS(=O)(=O)C(F)(F)F [A′-1, 1,8-naphthalimide trifluoromethanesulfonate, reference compound] | 310 | – |
| c1ccc(Sc2ccc([S+](c3ccccc3)c3ccccc3)cc2)cc1 [A′-2, reference compound] | 880 | – |
| O=C1c2cccc3cccc(c23)C(=O)N1OS(=O)(=O)c1c(F)c(F)c(F)c(F)c1F [A′-3, 1,8-naphthalimide pentafluorobenzenesulfonate, reference compound] | 360 | – |
| CC1(C)C2CCC1(CS(=O)(=O)ON1C(=O)c3cccc4cccc(c34)C1=O)C(=O)C2 (stereo not drawn) [A′-5, 1,8-naphthalimide-(+)-10-camphorsulfonate, reference compound] | 480 | – |
| CC(C)Oc1ccc2c3c(cccc13)C(=O)N(OS(=O)(=O)C(F)(F)F)C2=O [Example A-1, 4-isopropoxy-1,8-naphthalimide trifluoromethanesulfonate] | 75 | ∘ |
| CCCOc1ccc2c3c(cccc13)C(=O)N(OS(=O)(=O)C(F)(F)F)C2=O [Example A-2, 4-n-propoxy-1,8-naphthalimide trifluoromethanesulfonate] | 80 | ∘ |
| O=C1c2cccc3c(OCC(F)(F)C(F)F)ccc(c23)C(=O)N1OS(=O)(=O)C(F)(F)F [Example A-3, 4-(2,2,3,3-tetrafluoro-1-propoxy)-1,8-naphthalimide trifluoromethanesulfonate] | 60 | ∘ |
| O=C(Cc1ccccc1)c1ccc2c3c(cccc13)C(=O)N(OS(=O)(=O)C(F)(F)F)C2=O [Example A-4, 4-phenylacetyl-1,8-naphthalimide trifluoromethanesulfonate] | 75 | ∘ |
| O=C1c2cccc3c(Oc4c(F)c(F)c(F)c(F)c4F)ccc(c23)C(=O)N1OS(=O)(=O)C(F)(F)F [Example A-5, 4-pentafluorophenoxy-1,8-naphthalimide trifluoromethanesulfonate] | 50 | ∘ |
| O=C1c2cccc3c(Oc4cccc(C(F)(F)F)c4)ccc(c23)C(=O)N1OS(=O)(=O)C(F)(F)F [Example A-6, 4-(3-trifluoromethylphenoxy)-1,8-naphthalimide trifluoromethanesulfonate] | 55 | ∘ |
| O=C1c2cccc3c(Sc4ccccc4)ccc(c23)C(=O)N1OS(=O)(=O)C(F)(F)F [Example A-7, 4-phenylthio-1,8-naphthalimide trifluoromethanesulfonate] | 75 | ∘ |
| COc1cc2c3c(cccc3c1)C(=O)N(OS(=O)(=O)C(F)(F)F)C2=O [Example A-8, 3-methoxy-1,8-naphthalimide trifluoromethanesulfonate] | 75 | ∘ |
| CCCCC(CC)C(=O)Oc1cc2c3c(cccc3c1)C(=O)N(OS(=O)(=O)C(F)(F)F)C2=O (stereo not drawn) [Example A-9, 3-(2-ethylhexanoyloxy)-1,8-naphthalimide trifluoromethanesulfonate] | 40 | ∘ |
| CCCC(=O)Oc1cc2c3c(cccc3c1)C(=O)N(OS(=O)(=O)C(F)(F)F)C2=O [Example A-10, 3-butyroyloxy-1,8-naphthalimide trifluoromethanesulfonate] | 55 | ∘ |
| O=C(Oc1cc2c3c(cccc3c1)C(=O)N(OS(=O)(=O)C(F)(F)F)C2=O)c1ccccc1 [Example A-11, 3-benzoyloxy-1,8-naphthalimide trifluoromethanesulfonate] | 60 | ∘ |
| O=C(Oc1cc2c3c(cccc3c1)C(=O)N(OS(=O)(=O)C(F)(F)F)C2=O)c1c(F)c(F)c(F)c(F)c1F [Example A-12, 3-pentafluorobenzoyloxy-1,8-naphthalimide trifluoromethanesulfonate] | 50 | ∘ |
| CC(C)(C)c1cc2c3c(cc(C(C)(C)C)cc3c1)C(=O)N(OS(=O)(=O)C(F)(F)F)C2=O [Example A-13, 3,6-di-tert-butyl-1,8-naphthalimide trifluoromethanesulfonate] | 45 | ∘ |
| CC(C)(C)Cc1cc2c3c(cc(CC(C)(C)C)cc3c1)C(=O)N(OS(=O)(=O)C(F)(F)F)C2=O [Example A-14, 3,6-dineopentyl-1,8-naphthalimide trifluoromethanesulfonate] | 50 | ∘ |
| O=C1c2cc(C34CC5CC(CC(C5)C3)C4)cc3cc(C45CC6CC(CC(C6)C4)C5)cc(c23)C(=O)N1OS(=O)(=O)C(F)(F)F [Example A-15, 3,6-diadamantyl-1,8-naphthalimide trifluoromethanesulfonate] | 55 | ∘ |
| O=C1c2cccc3c(C(F)(F)C(F)(F)C(F)(F)C(F)(F)F)ccc(c23)C(=O)N1OS(=O)(=O)C(F)(F)F [Example A-16, 4-(nonafluorobutyl)-1,8-naphthalimide trifluoromethanesulfonate] | 280 | – |
| O=C1c2cccc3c(C(F)(F)C(F)(F)C(F)(F)C(F)(F)C(F)(F)C(F)(F)C(F)(F)C(F)(F)F)ccc(c23)C(=O)N1OS(=O)(=O)C(F)(F)F [Example A-17, 4-(heptadecafluoro-n-octyl)-1,8-naphthalimide trifluoromethanesulfonate] | 260 | – |
| C[Si](C)(C)c1ccc2c3c(cccc13)C(=O)N(OS(=O)(=O)C(F)(F)F)C2=O [Example A-18, 4-trimethylsilyl-1,8-naphthalimide trifluoromethanesulfonate] | 60 | ∘ |
| O=C1c2cccc3c(Cl)ccc(c23)C(=O)N1OS(=O)(=O)C(F)(F)F [Example A-19, 4-chloro-1,8-naphthalimide trifluoromethanesulfonate] | 85 | ∘ |
| O=C1c2cccc3c(Br)ccc(c23)C(=O)N1OS(=O)(=O)C(F)(F)F [Example A-20, 4-bromo-1,8-naphthalimide trifluoromethanesulfonate] | 90 | ∘ |
| CC(C)Oc1ccc2c3c(cccc13)C(=O)N(OS(=O)(=O)c1c(F)c(F)c(F)c(F)c1F)C2=O [Example A-21, 4-isopropoxy-1,8-naphthalimide pentafluorobenzenesulfonate] | 140 | ∘ |
| CCCOc1ccc2c3c(cccc13)C(=O)N(OS(=O)(=O)c1c(F)c(F)c(F)c(F)c1F)C2=O [Example A-22, 4-n-propoxy-1,8-naphthalimide pentafluorobenzenesulfonate] | 140 | ∘ |
| O=C1c2cccc3c(OCC(F)(F)C(F)F)ccc(c23)C(=O)N1OS(=O)(=O)c1c(F)c(F)c(F)c(F)c1F [Example A-23, 4-(2,2,3,3-tetrafluoro-1-propoxy)-1,8-naphthalimide pentafluorobenzenesulfonate] | 120 | ∘ |
